## Library screening results

Sequences of proteins named here, by UniProt entry; tags and fusion partners are left off.
UniProt E9BF75, entry or part of it: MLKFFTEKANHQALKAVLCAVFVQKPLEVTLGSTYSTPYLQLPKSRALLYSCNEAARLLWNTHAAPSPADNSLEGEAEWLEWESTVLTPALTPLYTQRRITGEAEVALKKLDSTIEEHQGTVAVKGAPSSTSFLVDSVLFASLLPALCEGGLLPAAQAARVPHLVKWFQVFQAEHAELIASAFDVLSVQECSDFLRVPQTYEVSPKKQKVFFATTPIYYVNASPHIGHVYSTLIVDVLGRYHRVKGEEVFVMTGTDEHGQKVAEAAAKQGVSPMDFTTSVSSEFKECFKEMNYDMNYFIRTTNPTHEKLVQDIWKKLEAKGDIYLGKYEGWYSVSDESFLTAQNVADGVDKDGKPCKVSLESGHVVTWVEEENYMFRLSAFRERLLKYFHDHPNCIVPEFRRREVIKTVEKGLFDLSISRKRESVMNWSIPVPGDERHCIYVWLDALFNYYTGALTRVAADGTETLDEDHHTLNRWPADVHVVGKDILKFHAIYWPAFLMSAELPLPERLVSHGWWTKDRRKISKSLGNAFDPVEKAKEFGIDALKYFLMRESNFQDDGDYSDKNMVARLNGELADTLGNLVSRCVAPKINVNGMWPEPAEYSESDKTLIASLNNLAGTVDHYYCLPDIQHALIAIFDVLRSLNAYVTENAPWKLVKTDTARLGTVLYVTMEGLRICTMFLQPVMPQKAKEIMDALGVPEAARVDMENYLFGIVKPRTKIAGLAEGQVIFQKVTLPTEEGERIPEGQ

Data taken from ChEMBL document CHEMBL3988442, “University of Dundee, Small-Polar-MMV Screening Library” (2021).

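Methionyl-tRNA synthetase (putative), Leishmania donovani (UniProt E9BF75). Primary screen of methionyl-tRNA synthetase; the read-out is not stated. The test concentration is not given. Values are per cent inhibition. About 68,000 compounds were tested under these conditions; 0.035% (about 24) showed 50% or more at least once.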

All values are in %. The record does not define 0% and 100%; most values in the screen are far below 50% and negative numbers occur (in some assays of this library far below -100). This is an unselected part of the compounds tested.

With c1ccc(-c2nc(CNC3CCc4ncnn4C3)no2)cc1 (stereo not given) the screen gave 13.69%. For Cn1ccc(C(=O)N2CCCC(Cc3cccc4ncccc34)C2)n1 (stereo not given) the result was 12.67%. For COc1ccc(-n2ccc(C(=O)N(C)C(C)C3(C)CC3)n2)cc1 (stereo not given) the result was 8.943%. With N[C@@H]1c2ccccc2C2(CCN(C(=O)c3ccc(=O)[nH]c3)CC2)[C@H]1O the screen gave 5.744%. With CC(C)(O)c1cn(C2CCN(C(=O)CCc3ccncc3)CC2)nn1 the screen gave -3.015%.

Result for CCc1ncc(C(=O)NCC2CCN(Cc3ccncc3)CC2)cn1 was 8.505%. CC(Cc1c(F)cccc1F)NC(=O)CSCC(N)=O (stereo not given) gave 2.978%. For CN1CC(c2ccccc2)CC12CCN(C(=O)c1ccncc1)CC2 (stereo not given) the result was 16.48%. With COc1cc(CNc2cc(-c3nncn3C)ccn2)cc(OC)c1OC the screen gave 25.54%. O=C(CSc1nncs1)N1CCN(Cc2ccc(Cl)s2)CC1 gave 2.463%.

With CCOC(=O)[C@@H]1[C@H]2CN(C(=O)OC)CCN2C[C@H]1c1ccccc1 the screen gave 0.8219%. Result for Cc1cccc(N2CCC(NCc3cnc(C4CCC4)s3)CC2)n1 was 0.2688%. With O=C(NCCN1CCOCC1)c1ccc(-c2ccccc2)[nH]c1=O the screen gave 2.857%. For CCOC(=O)Cn1c(=O)c(OCC)nc2cnccc21 the result was 8.451%. Result for CN1CCN(Cc2cn3c(n2)CN(Cc2cccc(F)c2)CC3)CC1 was 7.625%.

For CCCSCC(=O)N1CCN(c2ccc(OC)cc2)CC1C (stereo not given) the result was 2.74%. With COCc1cnc2n1CCN(C(=O)c1ccc3ccccc3n1)C2C (stereo not given) the screen gave 7.843%. Result for CC(C)CN1CCC(C(=O)NCCNC(=O)c2ccoc2)CC1 was 10.31%. For CCc1nc2n(n1)CC(NCc1cc3ccccc3o1)CC2 (stereo not given) the result was 12.39%. With O=S(=O)(Cc1ccccc1Cl)N1CCC2(CC1)OCCS2 the screen gave 14.15%.

For CC(=O)N1CCN(C(=O)Nc2ccccc2)CC2(CC(=O)N(C)C2)C1 (stereo not given) the result was 2.778%. O=C(O)COc1ccc(CN2CCCC(Cc3cccnc3)C2)cc1 (stereo not given) read 15.56%. With CC(=O)N1CCc2nnc(C3CCCN3CC3CCCCC3)n2CC1 (stereo not given) the screen gave 12.9%. N#Cc1cccc(N2CCCC3(CN(C(=O)NC4CC4)CCO3)C2)c1 (stereo not given) read 3.136%. COc1ccc(SC(C)C(=O)N2CCC(O)CC2)cc1 (stereo not given) gave 7.521%.

Result for CC(C)(C)c1cc(NC(=O)CN2CCCC2Cn2cncn2)on1 (stereo not given) was 8.865%. With O=C(c1cncs1)N1CCC(c2cnccn2)CC1 the screen gave 6.25%. Result for O=C1CC(N(C(=O)c2ccc3c(c2)CCC3)C2CC2)C(=O)N1 (stereo not given) was 2.347%. Cc1cccc2c1nc1n2[C@@H](CNC2CCCCC2)COC1 read 3.051%. With CN(CC(=O)NCc1ccccn1)C1CCCN(c2cccnn2)C1 (stereo not given) the screen gave 10.89%.

Result for Cc1ccc2c(n1)N(CC(C)C)CCN(C(=O)Cc1ccccn1)C2 was -9.273%. Result for CC(C)c1nnc2n1CCN(C(=O)c1cn(-c3ccccc3)nn1)C2 was 21.47%. With COc1ccc(C(=O)c2cnc(C(C)C)n2C)cc1 the screen gave 6.636%. c1ccc(-c2cnc3n2CCNC32CCNCC2)cc1 gave 0.3623%. With Cc1cc(N2CCCC(c3n[nH]c4ncccc34)C2)ncn1 (stereo not given) the screen gave 2.588%.

CN(C)c1cc(CNc2ccc(S(=O)(=O)C(C)(C)C)nc2)ccn1 gave 2.743%. CCCN(CCC)c1ncc(S(=O)(=O)c2ccccc2)c(N)n1 read 11.26%. For Cc1nc(CN2CCN(C(C)c3nc(C4CC4)no3)CC2)oc1C (stereo not given) the result was 20.53%. O=C(Cc1csc(-c2ccco2)n1)N1CCN(CCO)CC1 gave 11.81%. For COc1ccc(CCNC(=O)NCc2cccc(C(N)=O)c2)cc1OC the result was 7.692%.

Cn1c(CCNc2nccnc2C#N)nc2cc(Cl)ccc21 gave 10.48%. With Cc1nc(CN2CC[C@H](OCC3CC3)[C@@H]2Cc2cccnc2)cs1 the screen gave 16.24%. CCOC(=O)c1sc2ccsc2c1CNC(=O)C(C)OC (stereo not given) gave 7.937%. Result for N#Cc1ccnc(N2CCN(C(=O)Cc3ccc4c(c3)CCO4)CC2)c1 was 16.33%. CCc1nnc2n1CCN(C(=O)Cc1csc(-c3ccco3)n1)C2 gave 9.859%.

Cc1noc([C@H]2C[C@@H]3CCN(C(=O)c4cccn4C)C[C@H]3O2)n1 read 12.92%.

3 of the entries, repeated:

SMILES,Inhibition
Cc1cccc(N2CCC(NCc3cnc(C4CCC4)s3)CC2)n1,0.2688%
Cc1nc(CN2CC[C@H](OCC3CC3)[C@@H]2Cc2cccnc2)cs1,16.24%
CC(C)(C)c1cc(NC(=O)CN2CCCC2Cn2cncn2)on1 (stereo not given),8.865%